Test results taken from article PMC7079383.

Amino acid sequences for entries named in this document (tags omitted). A change or cut given only in a name is not applied to a line headed by its entry.
UniProt P16220: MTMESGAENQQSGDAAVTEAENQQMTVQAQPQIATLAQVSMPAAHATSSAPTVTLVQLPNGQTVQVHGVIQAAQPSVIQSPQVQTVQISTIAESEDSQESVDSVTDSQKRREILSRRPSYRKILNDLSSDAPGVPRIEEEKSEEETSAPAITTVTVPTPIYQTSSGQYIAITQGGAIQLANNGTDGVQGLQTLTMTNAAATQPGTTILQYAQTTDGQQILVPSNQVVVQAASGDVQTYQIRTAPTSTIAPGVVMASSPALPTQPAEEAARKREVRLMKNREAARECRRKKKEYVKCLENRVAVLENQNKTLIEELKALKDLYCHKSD

Molecular target: CREB (endogenous, U251 nuclear extract) (UniProt P16220)
Assay: EMSA, supershift
Conditions: Non-radioactive EMSA kit (Viagene), 10 ug U251 nuclear extract, room temperature, 20 min with competitor then 20 min with biotin probe, 6% native PAGE; protein in an extract; label: biotin (labelled probe, unlabelled as competitor)

Sequence	binding result
AAGCCACTGGAGGGCACGTCACGGAGTG (double strand) [wild-type CREB-E (CRE of GDNF enhancer II)]	binds
CGCGCCGGTTGACGTGGTGTCTCGTTCG (double strand) [wild-type CREB-S (CRE of GDNF silencer II)]	binds

For at least one entry, the source does not settle the construct or the ends of the probe. Results from cells or extracts need not show a direct contact.
